Z-score data for 104 sequences are collected here from PubChem BioAssay AID1347423 (Functional Genomics Laboratory (NCATS/FGL), 2020).

Out of some 52,000 sequences screened, about 210 (0.4%) were called active.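 The calls were made as follows: active = gene whose silencing raises cell survival under the drug, median off-target-corrected z-score across its silencing RNAs 2 or more; inactive = the rest.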 The list shows a part of the results.

The experiment in a line: Resistance to Poly (ADP-Ribose) Polymerase inhibitor: Gene Identification via Genome-wide siRNA Screen. As to conditions: mouse BRCA2 R2336H ES cells, olaparib, CellTiter-Glo viability; hits give high values. Summed up: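 Mouse BRCA2 R2336H ES cells were reverse-transfected with siRNA (20 nM final), treated at 48 h with 500 nM olaparib, and read by CellTiter-Glo after 72 h. Scores: MAD-based z per siRNA, median per gene, seed off-target correction.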
CCACAUAAGUGGCUUAUCATT against Slc35d2: the z-score is inactive: 1.61.
With GGCAUGACUUCAUCGAGACTT against Kua the figure was inactive: 0.0577; with GGAGAUUUCUUCCAUGGUCTT against Hspa2, inactive: -0.265; with GGAGAUGUGUGCUAUGUGGTT against Gzmb, inactive: -1.14.
For GGUUAUCAAGAUUGCAUGUTT against Olfr853, the z-score was inactive: 0.0966.
On to CGGAAGCCUCCACAAAUAATT against Apba1, for which the z-score is inactive: -2.8.
As for GGUUUCGGUGGAAGUCGUATT against AI480556, the figure is inactive: -0.603; as for AGGAAACAGCACCUUGUUGTT against Olfr205, inactive: 0.994.
CCUUUGGCAACAUCGUUUATT against Arrdc4: the z-score is inactive: -0.137.
As for “CCACUAUCAUUAUUUAUGCTT against A630026F04”, the figure is inactive: 0.0993; as for GCAGCUACUACACCAACCATT against Dlx2, inactive: 0.511; as for GGAACAUCCAUGUAUUCAATT against Ube2l3, inactive: 3.63.
With “GGGCCUCUUCAUCUUUCUCTT against E230012M21” the figure was inactive: 0.587.
Consider GGGUUAUCUCUUAAUGGCATT against Fundc1, for which the z-score is inactive: 3.26.
GGUGGGCUUUCAGUGCUACTT against BC005764: the z-score was inactive: -0.928.
As to GGUCACUUCAUCCAUAGCUTT against BC060631, the z-score is inactive: 0.547.
As for GGCGGUGAAGUCUAAGGCATT against Hist1h1b, the z-score was inactive: -0.72.
With “GGUGACUAGGAAGAACACGTT against 2310004K06Rik” the figure was inactive: 0.174; with GGUUUUGGUAUCUCCAUGGTT against Olfr2, inactive: 0.121; with GGGUCUUUGUCAGACAAGCTT against Sftpc, inactive: 0.37.
Consider CCAUGCUAUUCUGGUUUCATT against Tas2r138, for which the z-score is inactive: -0.612.
Take GGUUGAGUGUCUUUUCUGCTT against Krt1-4: the z-score is inactive: -0.743.
As for GGUUUGCCUAUUUUUUCUUTT against Rg9mtd1, the figure is inactive: 1.16; as for CCCAAACGUGGAAGGACCUTT against Sgk2, inactive: -0.248.
GCUGUUAGACCUCUUGAUUTT against Olfr1164: the z-score is inactive: 0.111.
Take GUGCAAGGUGUAUGAAUCUTT against Cldn5: the z-score was inactive: 3.3.
For the sequence GCGGCUAAUUUGCACUCGUTT against Jtb, the z-score is inactive: -1.9.
Turning to CCAUACGAAAAAAACUGUCTT against Nfasc, the z-score was inactive: 0.491.
As for CGAAAUCGCGUUAUUUUCUTT against Rora, the figure is inactive: 0.363; as for CCCUUGAGUCAUUCUCUAATT against Gsto1, inactive: -0.252; as for GGAAGUAGGAUAUUUACACTT against Mg29, inactive: 1.16.
Consider CCUUUAGUGUGGGUUUAUUTT against Mcm10, for which the z-score is inactive: 0.833.
As for CCACUAUCGCAUACAGCAATT against Olfr215, the figure is inactive: 0.803; as for GGCCUCAAGAGCAAUACGUTT against Gm1008, inactive: -0.0922; as for GGAAGUAUAAGUGAGCAGATT against Dbnl, inactive: -0.312.
With GGAAGACACACAGUACAUGTT against Rfx2 the figure was inactive: 1.82.
With GGCAGAAUAUGUCAACUCGTT against Ddx31 the figure was inactive: 0.394; with GGCACUACGUGAUGUAUUATT against Tle1, inactive: -0.0622.
Regarding “GGAUACUUAGUCUUGAAUCTT against 2410017I18Rik”, the z-score was inactive: 0.881.
Regarding “GGCAAAUUUCACUUUCAUUTT against 0610008A10Rik”, the z-score was inactive: -0.479.
Take GGGUGGACCUUCGGAAUUATT against Mrpl23: the z-score was inactive: -0.616.
As for GGACAGCAAGAUGAAGAUGTT against Il17r, the figure is inactive: 0.442; as for GGACAGCAUGAUCCUACAATT against Smr2, inactive: -1.72.
GCAACCUAUUUGUCUCUAUTT against Trhde: the z-score was inactive: 0.219.
GCGAAAGUGUUUGGCUGUATT against Ckt2: the z-score was inactive: -2.21.
Turning to CCUCACUGGUACAAUCCCATT against Tsg101, the z-score was inactive: -1.11.
As for CCAAGUAGAUAGGAAUUAUTT against Eps8, the figure is inactive: -0.242.
With GGAUAUGUACUGUCCAUCUTT against B3galt4, the z-score is inactive: -1.47.
With CCUGGCAGAACUUUGAUAGTT against Fars1 the figure was inactive: -1.61.
As for “GCUGCACUAUAGCAUCUGUTT against 4921533L14Rik”, the figure is inactive: -1.5.
As for GCAAGCACGUCAGAAUCUCTT against Pln, the figure is inactive: -0.362.
Take GGCUUCAAAACAAACAUCATT against Hsd17b2: the z-score is inactive: 0.432.
GCUCAAUGUUUGGCAACUUTT against Olfr1087: the z-score was inactive: -0.68.
As for CCUGGUAAUCACAAUUUCGTT against Tor1b, the figure is inactive: 1.27; as for “GCUUCUGCUAUAUGUGCAGTT against 9130020G10Rik”, inactive: 0.314; as for “CGAAAGGUUUAUCUGUUAGTT against 2310058A11Rik”, inactive: 0.612.
With GCAUGUGAACAUAUUCAAATT against Sfrs2ip, the z-score was inactive: -0.216.
With CGAAUAUCCAGAAAUCAAUTT against Zfp162 the figure was inactive: -0.236; with GGAGAUUUUCCAGUACACUTT against Btbd12, inactive: -0.278.
With GGGACUUUGAGAAGCAGAGTT against Gja10 the figure was inactive: -1.36.
With GGGCAUUGAAGCAAAUAUATT against Prss7 the figure was inactive: -0.0342.
For GGAAAUCCACAGGAAAGUGTT against G3bp, the z-score was inactive: -0.629.
As for UAACAGACCAGUAAAGGCCTT against Klra21, the figure is inactive: -0.445; as for GGCAUGACAGCGGUUAUCUTT against Slc25a16, inactive: 1.82; as for GCGCACAGUACAUUCAUUUTT against Drd5, inactive: -0.99.
For the sequence CCGUCCACACUUUUUGCUGTT against Isyna1, the z-score was inactive: 0.732.
As to “GGGUGUGAAAGUCAAUAAATT against 4930591A17Rik”, the z-score is inactive: 0.132.
With GGAGAUCUAUUGGAUCCAUTT against Trim12 the figure was inactive: 0.418; with GCUCAAUAAAGGUGUGGAATT against Cox6a2, inactive: 0.567.
With “GCCUAUGAUAAGUCUGUGUTT against 6330512M04Rik” the figure was inactive: -1.12; with GCAUUAUGUCCCAACAUAATT against Olfr935, inactive: -0.531; with “GCUUGUAAUGCAGGUUUAATT against 5730509C05Rik”, inactive: -1.22.
Consider GGAAUCGGACUACCUCAUCTT against Lrp11, for which the z-score is inactive: -0.192.
As for GGACCAUUGCCAGAAACUATT against Ptpn20, the figure is inactive: 0.0122; as for “CCUGAUAUUCAAUCUGCACTT against A730008L03Rik”, inactive: 0.131.
As for GCUUAUGAACUAACAUAGATT against Ccr2, the z-score was inactive: 0.33.
As for “CCUCUCAUAUCAUAGGUAATT against C730026E21Rik”, the figure is inactive: -0.857; as for CGUUGCUGACUGCUAUGAATT against Tmprss13, inactive: -0.39.
For GGCUCCUUUUUGAGCUGAATT against BC055757, the z-score was inactive: -0.313.
As for GGCUAAAAAAAAAUGGUAGTT against Thra, the z-score is inactive: -0.0839.
For GGCGAGAGGAAGAAAGACUTT against Mlph, the z-score was inactive: -1.76.
Turning to GGCUUUUCACAAAACUGUUTT against Zfp120, the z-score is inactive: 0.48.
As for GGGAGCAAACGAGAAGAUATT against Gja9, the figure is inactive: 1.72; as for GGCUCAUGUACUGCUACAUTT against Ntsr2, inactive: 0.174; as for CCCUCCUAGAUACAUUUUGTT against Ifna6T, inactive: 0.0459.
With “CGCGGUAAAUACAAGGAGGTT against 1200014P03Rik” the figure was inactive: 0.487; with GGCUGUGAUACGACUAAAGTT against Fscn3, inactive: -0.407.
With GGACUUUUGAUAGAUGCUATT against Kctd12b the figure was inactive: -0.29; with GGAAGGAAGAAAGGGUUCUTT against Olfr1160, inactive: 0.623; with GGCUGAGAACUACUAUUCUTT against Mesp2, inactive: -0.0193.
For the sequence GGAUGCUUUACCAAAUGAATT against BC010552, the z-score is inactive: 0.932.
As for GGUAGCUGUAGUUCUAACUTT against AI597468, the figure is inactive: 0.625.
As for AAGAGGCUUCCGACAAGUGTT against Mt2, the z-score is inactive: -0.168.
With “GCUCUUAACAUUUAUGCUATT against 5730421E18Rik” the figure was inactive: 1.14.
Regarding GCCUCAUACCUUGUUACUATT against Gm962, the z-score was inactive: -0.682.
As for CCAAUUUAUGCCUGAAACUTT against Rhof, the figure is inactive: -1.28.
As for GGCGAGCCAUGUUUGAUGATT against Hs1bp3, the figure is inactive: 0.449; as for “CCAUGCUGAUUGCUCCGACTT against F730031O20Rik”, inactive: -0.513.
As for GGAGUCAUUGACGGAGGAUTT against Dapk3, the figure is inactive: 1.04; as for GCUACCUUUUAGUGUCCAUTT against Olfr1462, inactive: -0.33; as for CCAUGGACAUCGAUCACAUTT against Sec14l3, inactive: -0.0645.
With “GGUCCUGAAAAAAGUGAUUTT against 3110010F15Rik”, the z-score was inactive: 0.47.
As for GAGGGAGAUGUCGUCCAAGTT against Gng13, the figure is inactive: -0.831.
With GGGACCAGAACCACAAACATT against Ghsr the figure was inactive: 1.55.
